Molecules are shown by their SMILES. Some of the results follow. Shown are side measurements of this screen, not its main read-out; they come without a call. The list favours compounds with an active or inconclusive main result. Potencies come from curve fits of mixed quality, noted in brackets.

The nature of the first assay: S16 Schwann cell PMP22 intronic element beta-lactamase assay (AID 624044). To be noted: S16 rat Schwann cells, PMP22 element beta-lactamase FRET, 24 h; measured here: 460 nm blue channel. From the text:
Description: Charcot-Marie-Tooth-Association [CMTA] National Center for Advancing Translational Sciences [NCATS] Charcot-Marie-Tooth (CMT) disease was first characterized by Jean-Martin Charcot and Pierre Marie in France and, independently, by Howard Henry Tooth in England in 1886. CMT is one of the most common inherited neurological diseases, affecting approximately 1 in 2,500 Americans. […] The most prevalent type of CMT is known as CMT1A and caused by a duplication of the PMP22 gene which leads to over-expression of this protein. PMP22 is a glycosylated intrinsic membrane protein accounting for 2-5% of the myelin protein content, and its over-expression results in demyelination and subsequently axonal loss. A pair of cellular transcription-based assays was developed in the S16 rat Schwann cell lines (Hai, M., et al., 2002) stably transfected with orthogonal reporters - firefly luciferase (Fluc) and beta-lactamase (beta-Lac) - whose expression is driven by an intronic regulatory element of the PMP22 gene (Jones, E.A., et al., 2011) to recapitulate endogenous expression of PMP22. The current assay employs Blac as a reporter of PMP22 expression. A comprehensive library of approved drugs, the NCGC Pharmaceutical Collection (Huang, R., et al., 2011), was screened in the cross-validating platform of the orthogonal reporter assays to identify drug modulators inhibitory towards PMP22 expression. A set of counter-screens was devised to address non-specific activity of the library. An ATP-dependent CellTiter-Glo assay (developed by Promega Corp) was utilized to control cell viability. In addition, biochemical Fluc enzyme assay was performed to assess direct inhibition of the Fluc enzymatic activity. References Hai, M., Muja, N., DeVries, G.H., Quarles, R.H. and Patel, P.I. Comparative analysis of Schwann cell lines as model systems for myelin gene transcription studies. J Neurosci Res, 2002. 69(4): pp 497-508 Huang, R., Southall, N., Wang, Y., Yasgar A., Shinn P., Jadhav, A. , Nguyen, D.-T. and Austin, C.P., The NCGC pharmaceutical collection: a comprehensive resource of clinically approved drugs enabling repurposing and chemical genomics. Sci Transl Med, 2011. 3(80): p. 80ps16.
S16 Schwann cell PMP22 intronic element beta-lactamase assay The beta-Lac-expressing S16 cells were seeded in black clear-bottom 1536 well plates at between 500-750 cells/6uL in DMEM medium containing 10% FBS, w/o phenol red. After overnight incubation at 37 degree Celsius/5% C02, 23 nL of compounds or DMSO were delivered to each well using a pin tool, followed by 24h-incubation at 37 degree Celsius/5% C02. Then one microl of LiveBLAzer FRET B/G detection mix (Invitrogen) was added to each well. An EnVision plate reader (PerkinElmer) was used to detect the dual beta-Lac output composed of fluorescence at 460nm for beta-Lac expression and FRET at 535nm for cell viability. The % signal at 535 nm was scaled to a full range of DMSO and zero and then normalized using the maximum response observed in the screen as 100% activity. The % signal at 460nm was normalized to the average readings of potassium clavulanate (a positive control) - treated cells relative to DMSO-treated cells (0% Activity). The concentration-effect curves were then classified based on curve quality (r2), response magnitude and degree of measured activity.
For the compound `CC(C)CCC(=O)OC1CCC2C3CCC4=CC(=O)CC[C@]4(C)C3CC[C@]12C` (stereo not given in full), the AC50 was 22.4 µM [rising, partial curve]. Take `CN1C(=O)CC(=O)N(c2ccccc2)c2cc(Cl)ccc21`: the half-maximal activity concentration (AC50) is 0.0446 µM [falling, full curve, poor fit]. With `CCNc1nc(Cl)nc(NCC)n1`, the AC50 was 3.98 µM [falling, full curve, poor fit]. Turning to `Oc1cc[c]([Hg][Cl])cc1`, the AC50 was 5.62 µM [falling, full curve]. Still for that read-out and setting: then `CC(C)(C)c1cc(O)ccc1O`, with 1.41 µM [falling, full curve, poor fit].

Consider `O=C1C2CC=CCC2C(=O)N1SC(Cl)(Cl)Cl` (stereo not given), for which the concentration at half-maximal activity (AC50) was 12.6 µM [falling, partial curve]. For the compound `OCCN1CCN(CCCN2c3ccccc3Sc3ccc(C(F)(F)F)cc32)CC1`, the AC50 is 22.4 µM [falling, partial curve]. Take `CCCCC/C=C\C/C=C\C/C=C\C/C=C\CCCC(=O)NCC(=O)O`: the AC50 was 0.251 µM [falling, full curve, poor fit]. Take `CNc1ccc(C(=O)CC(O)CCC(C)C2OC(=O)CC(O)CC(=O)CC(O)CC(O)CC(O)CC(O)CC3(O)CC(O)C(C(=O)OC)C(CC(O[C@@H]4OC(C)C(O)C(N)C4O)/C=C/C=C/C=C/C=C/C=C/C=C/C=C/C2C)O3)cc1` (stereo not given in full): the AC50 was 25.1 µM [rising, single point]. For `CCOC(=O)CC(SP(=S)(OC)OC)C(=O)OCC` (stereo not given), the AC50 is 8.91 µM [falling, partial curve, poor fit]. The same measure, in the same setting: the value for `C[C@]12Cc3nonc3C[C@@H]1CC[C@@H]1[C@@H]2CC[C@@]2(C)[C@H]1CC[C@]2(C)O` was 1.26 µM [falling, full curve, poor fit]; that for `COC(C(=O)C(O)C(C)O)C1Cc2cc3cc(OC4CC(OC5CC(O)C(OC)C(C)O5)C(OC(C)=O)C(C)O4)c(C)c(O)c3c(O)c2C(=O)C1OC1CC(OC2CC(OC3CC(C)(O)C(OC(C)=O)C(C)O3)C(O)C(C)O2)C(O)C(C)O1` (stereo not given) was 0.0398 µM [falling, full curve]; that for `CC(C)NC(C)C` was 1.26 µM [falling, full curve, poor fit]. For the compound `C=CCC1(C(C)CCC)C(=O)N=C(S)NC1=O` (stereo not given), the AC50 was 3.55 µM [falling, full curve, poor fit]. As for `CCCC1CCCCN1` (stereo not given), the AC50 was 0.0562 µM [falling, full curve, poor fit]. On the same count and under the same terms, the value for `CCOc1ccc2c3c1O[C@H]1[C@@H](O)C=C[C@H]4[C@@H](C2)N(C)CC[C@@]341` was 2.24 µM [falling, partial curve, poor fit]; that for `COc1cc([C@@H]2c3cc4c(cc3[C@H](O)[C@H]3COC(=O)[C@H]23)OCO4)cc(OC)c1OC` was 0.0199 µM [falling, full curve]; that for `COC([CH2][Hg])CNC(=O)c1ccccc1OCC(=O)O` (stereo not given) was 6.31 µM [falling, full curve, poor fit]. Same read-out and setting: the value for `[Hg+][c]1ccccc1` was 12.6 µM [falling, full curve]. Consider `C[C@]12CC[C@H]3[C@@H](CC=C4C[C@@H](O)CC[C@@]43C)[C@@H]1CC[C@@H]2O`, for which the AC50 is 1.26 µM [falling, full curve, poor fit]. On the same count and under the same terms, the value for `Cc1cc(C)cc(C(=O)OC2CC3CCC(C2)N3C)c1` (stereo not given) was 12.6 µM [falling, partial curve, poor fit]. For `S=C(S)N1CCNCC1`, the AC50 is 8.91 µM [falling, full curve].

On to `CC(=O)OC1C[C@H](O[C@@H]2C(O)C[C@H](O[C@@H]3C(O)C[C@@H](OC4CC[C@]5(C)C(CCC6C5CC(O)[C@@]5(C)C(C7=CC(=O)OC7)CC[C@@]65O)C4)OC3C)OC2C)O[C@H](C)[C@H]1O[C@H]1OC(CO)C(O)C(O)C1O` (stereo not given in full), for which the AC50 is 17.8 µM [falling, partial curve, poor fit]. Regarding `CC1(C)S[C@@H]2[C@H](N)C(=O)N2C1C(=O)O` (stereo not given in full), the AC50 is 2.13 µM [falling, full curve, poor fit]. Turning to `O=C(O)c1ccccc1Nc1cccc(C(F)(F)F)c1`, the AC50 was 25.1 µM [rising, partial curve]. With `CC1(Cn2ccnn2)[C@H](C(=O)O)N2C(=O)C[C@H]2S1(=O)=O` (stereo not given in full), the AC50 was 3.55 µM [falling, full curve].

The same assay, now with this note: S16 rat Schwann cells, PMP22 element beta-lactamase FRET, 24 h; measured here: 530 nm viability channel.
For `Oc1cc[c]([Hg][Cl])cc1`, the AC50 is 2.82 µM [rising, full curve]. On the same count and under the same terms, then `CC(C)(C)c1cc(O)ccc1O`, with 1 µM [falling, full curve, poor fit]; and `O=C1C2CC=CCC2C(=O)N1SC(Cl)(Cl)Cl` (stereo not given), with 22.4 µM [rising, single point]; and `CCCCC/C=C\C/C=C\C/C=C\C/C=C\CCCC(=O)NCC(=O)O`, with 0.282 µM [falling, full curve]. With `CNc1ccc(C(=O)CC(O)CCC(C)C2OC(=O)CC(O)CC(=O)CC(O)CC(O)CC(O)CC(O)CC3(O)CC(O)C(C(=O)OC)C(CC(O[C@@H]4OC(C)C(O)C(N)C4O)/C=C/C=C/C=C/C=C/C=C/C=C/C=C/C2C)O3)cc1` (stereo not given in full), the AC50 was 28.2 µM [rising, single point]. With `C[C@]12Cc3nonc3C[C@@H]1CC[C@@H]1[C@@H]2CC[C@@]2(C)[C@H]1CC[C@]2(C)O`, the AC50 was 1.41 µM [falling, full curve].

Consider `COC(C(=O)C(O)C(C)O)C1Cc2cc3cc(OC4CC(OC5CC(O)C(OC)C(C)O5)C(OC(C)=O)C(C)O4)c(C)c(O)c3c(O)c2C(=O)C1OC1CC(OC2CC(OC3CC(C)(O)C(OC(C)=O)C(C)O3)C(O)C(C)O2)C(O)C(C)O1` (stereo not given), for which the half-maximal activity concentration (AC50) was 17.8 µM [rising, partial curve]. For the compound `NP(N)(=O)NC(=O)c1ccc(F)cc1`, the AC50 was 1.58 µM [falling, full curve, poor fit]. Turning to `CCOc1ccc2c3c1O[C@H]1[C@@H](O)C=C[C@H]4[C@@H](C2)N(C)CC[C@@]341`, the AC50 was 3.98 µM [falling, partial curve]. Regarding `COc1cc([C@@H]2c3cc4c(cc3[C@H](O)[C@H]3COC(=O)[C@H]23)OCO4)cc(OC)c1OC`, the AC50 is 0.1 µM [rising, full curve, poor fit]. Consider `COC([CH2][Hg])CNC(=O)c1ccccc1OCC(=O)O` (stereo not given), for which the AC50 was 3.55 µM [rising, partial curve]. Regarding `[Hg+][c]1ccccc1`, the AC50 is 28.2 µM [falling, single point]. With `S=C(S)N1CCNCC1`, the AC50 is 1.58 µM [falling, full curve]. On the same count and under the same terms, the value for `CC1(Cn2ccnn2)[C@H](C(=O)O)N2C(=O)C[C@H]2S1(=O)=O` (stereo not given in full) was 14.1 µM [rising, partial curve].

What is called AC50 is the concentration at which the activity in the assay is half-maximal. Higher therefore signals activity only at high concentration.
